Data from patent US20080050387A1, “Non-Androgen Dependent Roles for Androgen Receptor and Non-Androgen Related Inhibitors of Androgen Receptor” (priority 2003, published 2008).
No constants are given. Whether binding was seen depends on the method and setting. For part of these data: In cells and extracts the contact can be indirect. Some binding calls cover weakened binding; strength is not graded here.

Protein sequences, listed by entry. Tags and fused reporters are not part of them. Lines headed by an entry give the natural chain unless they say otherwise; changes in a name come on top.
UniProt P10275: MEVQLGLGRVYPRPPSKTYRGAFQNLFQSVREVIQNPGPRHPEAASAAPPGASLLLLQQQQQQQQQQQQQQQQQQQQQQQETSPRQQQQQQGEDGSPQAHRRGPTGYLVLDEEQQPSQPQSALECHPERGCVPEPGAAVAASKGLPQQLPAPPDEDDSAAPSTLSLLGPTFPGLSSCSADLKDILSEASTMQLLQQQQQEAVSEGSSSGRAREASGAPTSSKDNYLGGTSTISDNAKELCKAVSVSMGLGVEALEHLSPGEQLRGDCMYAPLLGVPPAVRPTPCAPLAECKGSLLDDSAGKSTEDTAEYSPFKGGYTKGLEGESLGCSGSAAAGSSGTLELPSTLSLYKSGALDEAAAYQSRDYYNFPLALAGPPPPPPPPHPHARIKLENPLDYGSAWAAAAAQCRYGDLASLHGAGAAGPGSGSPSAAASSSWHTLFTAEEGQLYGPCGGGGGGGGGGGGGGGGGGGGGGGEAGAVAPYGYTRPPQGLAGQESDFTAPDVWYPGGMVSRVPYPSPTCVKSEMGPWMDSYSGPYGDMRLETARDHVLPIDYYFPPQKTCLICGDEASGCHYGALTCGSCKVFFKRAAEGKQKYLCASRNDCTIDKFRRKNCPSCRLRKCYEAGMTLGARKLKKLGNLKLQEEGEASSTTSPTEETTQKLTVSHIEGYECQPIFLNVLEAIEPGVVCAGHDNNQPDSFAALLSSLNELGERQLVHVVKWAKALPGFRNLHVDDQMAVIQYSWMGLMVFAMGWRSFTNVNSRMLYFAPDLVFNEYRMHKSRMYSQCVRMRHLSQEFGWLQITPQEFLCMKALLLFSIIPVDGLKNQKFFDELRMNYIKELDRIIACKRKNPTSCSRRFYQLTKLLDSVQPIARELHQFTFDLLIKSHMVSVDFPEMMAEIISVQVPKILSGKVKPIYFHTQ

What was measured:
[1] = target: AR ligand-binding domain (AR LBD) (human) (UniProt P10275); assay: summary of Example 4
[2] = target: AR ligand-binding domain (AR LBD) (human) (UniProt P10275); assay: GST pull-down: GST-hRad9 with 35S-labeled AR domains
[3] = target: androgen receptor (AR), full length (human) (UniProt P10275); assay: mammalian two-hybrid and co-immunoprecipitation (FIG. 25)
[4] = target: AR ligand-binding domain (AR LBD) (human) (UniProt P10275); assay: GST pull-down: GST-hRad9 with 35S-labeled AR LBD, with or without DHT
AR DBD-LBD (human) [5] = target: AR DBD-LBD (human) (UniProt P10275); assay: GST pull-down: GST-hRad9 with 35S-labeled AR-DBD-LBD, with or without DHT
[6] = target: androgen receptor (AR), full length (human) (UniProt P10275); assay: co-immunoprecipitation of endogenous proteins from CWR22R cells with anti-AR antibody, anti-hRad9 blot
[7] = target: androgen receptor (AR), full length (human) (UniProt P10275); assay: co-immunoprecipitation with anti-Flag antibody from 293T cells transfected with AR and Flag-hRad9, anti-AR blot
AR DBD-LBD (human) [8] = target: AR DBD-LBD (human) (UniProt P10275); assay: yeast two-hybrid, liquid β-gal assay, bait GAL4 DBD-AR-DBD-LBD, DHT
AR DBD-LBD (human) [9] = target: AR DBD-LBD (human) (UniProt P10275); assay: yeast two-hybrid (AH109), GAL4-AR-DBD-LBD + f-hRad9 fused to an activation domain, 10 nM DHT
[10] = target: AR ligand-binding domain (AR LBD) (human) (UniProt P10275); assay: yeast two-hybrid (AH109), GAL4-AR-LBD + f-hRad9 fused to an activation domain, 10 nM DHT; weaker than with AR DBD-LBD
[11] = target: VP16-AR containing the residues 37 to 919 (human) (UniProt P10275); assay: mammalian two-hybrid in PC-3 cells
[12] = target: AR ligand-binding domain (AR LBD) (human) (UniProt P10275); assay: restatement of the two-hybrid and pull-down results

Measured: binding

B1: human checkpoint protein hRad9, full length (protein)
chain: MKCLVTGGNVKVLGKAVHSLSRIGDELYLEPLEDGLSLRTVNSSRSAYACFLFAPLFFQQYQAATPGQDLLRCKILMKSFLSVFRSLAMLEKTVEKCCISLNGRSSRLVVQLHCKFGVRKTHNLSFQDCESLQAVFDPASCPHMLRAPARVLGEAVLPFSPALAEVTLGIGRGRRVILRSYHEEEADSTAKAMVTEMCLGEEDFQQLQAQEGVAITFCLKEFRGLLSFAESANLNLSIHFDAPGRPAIFTIKDSLLDGHFVLATLSDTDSHSQDLGSPERHQPVPQLQAHSTPHPDDFANDDIDSYMIAMETTIGNEGSRVLPSISLSPGPQPPKSPGPHSEEEDEAEPSTVPGTPPPKKFRSLFFGSILAPVRSPQGPSPVLAEDSEGEG
binds: [1] | [2] | [3] | [4] | AR DBD-LBD (human) [5] | [6] | [7]

B2: f-hRad9, fragment of hRad9 isolated from yeast (aa 327-391) (protein)
chain: LSPGPQPPKSPGPHSEEEDEAEPSTVPGTPPPKKFRSLFFGSILAPVRSPQGPSPVLAEDSEGEG
binds: AR DBD-LBD (human) [8] | AR DBD-LBD (human) [9] | [10]

B3: C-terminus of ARA54 (protein, UniProt Q9UBS8 361-474, looked up)
chain: RNEYLQADEANKRLLDQRYGKRVIQKALEEMESKEWLEKNSKSCPCCGTPIEKLDGCNKMTCTGCMQYFCWICMGSLSRANPYKHFNDPGSPCFNRLFYAVDVDDDIWEDEVED
binds: [11]

B4: C-terminus of hRad9 (aa 269-391) (protein)
chain: DSHSQDLGSPERHQPVPQLQAHSTPHPDDFANDDIDSYMIAMETTIGNEGSRVLPSISLSPGPQPPKSPGPHSEEEDEAEPSTVPGTPPPKKFRSLFFGSILAPVRSPQGPSPVLAEDSEGEG
binds: [12]
